Source: publication PMC7812655
These are yes or no findings as the source states them, for the method shown. In cells and extracts the contact can be indirect. Binding can be weak; no strength is given. Sequences can lack the tags named with a protein.

Amino acid sequences for entries named in this document (tags omitted). A change or cut given only in a name is not applied to a line headed by its entry.
UniProt P01106: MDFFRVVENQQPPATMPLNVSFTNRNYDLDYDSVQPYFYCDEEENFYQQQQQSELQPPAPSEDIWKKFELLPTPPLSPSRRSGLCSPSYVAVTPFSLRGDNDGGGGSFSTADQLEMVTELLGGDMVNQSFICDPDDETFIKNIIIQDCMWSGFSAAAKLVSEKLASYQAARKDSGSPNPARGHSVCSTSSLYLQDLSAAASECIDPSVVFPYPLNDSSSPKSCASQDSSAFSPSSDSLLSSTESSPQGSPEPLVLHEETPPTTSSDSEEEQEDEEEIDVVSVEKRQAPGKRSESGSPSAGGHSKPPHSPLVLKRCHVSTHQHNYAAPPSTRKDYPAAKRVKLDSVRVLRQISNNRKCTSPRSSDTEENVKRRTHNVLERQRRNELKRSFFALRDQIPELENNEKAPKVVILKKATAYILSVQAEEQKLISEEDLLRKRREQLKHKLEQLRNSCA

Target: T1, EGFP-tagged IKKα (UniProt O15111)
T1 sequence: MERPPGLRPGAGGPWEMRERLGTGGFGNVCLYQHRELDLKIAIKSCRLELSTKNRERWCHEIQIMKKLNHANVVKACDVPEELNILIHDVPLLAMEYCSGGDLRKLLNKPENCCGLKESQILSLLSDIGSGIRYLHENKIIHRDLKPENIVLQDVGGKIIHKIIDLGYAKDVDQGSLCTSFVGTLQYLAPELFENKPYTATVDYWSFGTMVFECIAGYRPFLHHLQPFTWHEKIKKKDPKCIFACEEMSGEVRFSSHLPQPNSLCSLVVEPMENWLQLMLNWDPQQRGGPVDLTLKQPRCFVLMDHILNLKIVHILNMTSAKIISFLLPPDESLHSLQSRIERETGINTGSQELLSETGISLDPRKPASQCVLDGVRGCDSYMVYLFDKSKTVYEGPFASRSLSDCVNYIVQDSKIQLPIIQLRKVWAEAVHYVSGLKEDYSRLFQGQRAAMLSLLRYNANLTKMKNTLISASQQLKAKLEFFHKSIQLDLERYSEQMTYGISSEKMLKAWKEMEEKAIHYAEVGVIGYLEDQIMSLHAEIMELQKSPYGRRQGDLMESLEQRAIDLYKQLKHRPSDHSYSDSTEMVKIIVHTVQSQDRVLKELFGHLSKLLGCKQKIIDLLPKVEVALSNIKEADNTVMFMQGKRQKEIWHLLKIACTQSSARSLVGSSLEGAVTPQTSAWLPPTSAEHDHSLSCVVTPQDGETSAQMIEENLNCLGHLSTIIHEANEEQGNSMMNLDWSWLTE
Assay: FRET or BRET; 3-filter FRET microscopy in transfected HEK-293 cells; donor EGFP-tagged IKKα or IKKβ, acceptor red-fluorescent-protein tagged c-Myc; corrected and normalized FRET images (Figure S1, as described in ref. 27)

binding: binds
Substance: red-fluorescent-protein tagged c-Myc (from UniProt P01106)
